Experiment [1] has as its target PwNAC11 (Picea wilsonii). Nature of the experiment: two-hybrid; pGADT7-PwNAC11 (called the bait) with pGBKT7 fusions (called the prey) in yeast AH109; growth on SD/Trp-Leu-His-Ura selective medium (methods: SD/-Trp-Ura-His-Ade+X-α-gal).
For experiment [2], the target named is PwNAC11-cYFP fusion protein (Picea wilsonii). Nature of the experiment: split reporter; BiFC with split YFP (pSPYCE, pSPYNE) in agroinfiltrated Nicotiana benthamiana leaves; YFP signal in nuclei by confocal microscopy.

Results are given in words; binding and its absence hold for the method and conditions named. Binding can be weak; no strength is given. For some assays here: Binding seen in cells or lysates may run through a third protein. For some assays here: Sequences can lack the tags named with a protein.

B1: ABRE Binding Factor3 (ABF3) (protein, UniProt Q9M7Q3 1-454)
chain: MGSRLNFKSFVDGVSEQQPTVGTSLPLTRQNSVFSLTFDEFQNSWGGGIGKDFGSMNMDELLKNIWTAEESHSMMGNNTSYTNISNGNSGNTVINGGGNNIGGLAVGVGGESGGFFTGGSLQRQGSLTLPRTISQKRVDDVWKELMKEDDIGNGVVNGGTSGIPQRQQTLGEMTLEEFLVRAGVVREEPQPVESVTNFNGGFYGFGSNGGLGTASNGFVANQPQDLSGNGVAVRQDLLTAQTQPLQMQQPQMVQQPQMVQQPQQLIQTQERPFPKQTTIAFSNTVDVVNRSQPATQCQEVKPSILGIHNHPMNNNLLQAVDFKTGVTVAAVSPGSQMSPDLTPKSALDASLSPVPYMFGRVRKTGAVLEKVIERRQKRMIKNRESAARSRARKQAYTMELEAEIAQLKELNEELQKKQVEIMEKQKNQLLEPLRQPWGMGCKRQCLRRTLTGPW
As for B1, the binding entry in experiment [1] is “binds”.

B2: ABF3 in pSPYNE (BiFC fusion) (protein, UniProt Q9M7Q3 1-454)
chain: B1 chain
For B2, in experiment [2], the binding entry is “binds”.
